Experiment [1] has as its target T1, Flag-tagged TREX1 (human) (UniProt Q9NSU2).
T1 sequence: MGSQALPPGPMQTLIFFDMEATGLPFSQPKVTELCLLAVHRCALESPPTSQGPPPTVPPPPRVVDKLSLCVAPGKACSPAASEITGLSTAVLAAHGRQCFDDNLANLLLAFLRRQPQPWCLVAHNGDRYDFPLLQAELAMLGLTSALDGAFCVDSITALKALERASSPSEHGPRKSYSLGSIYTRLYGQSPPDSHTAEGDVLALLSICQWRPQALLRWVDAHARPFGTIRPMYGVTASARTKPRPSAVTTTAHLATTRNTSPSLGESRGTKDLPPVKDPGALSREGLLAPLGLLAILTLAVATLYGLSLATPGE
Put plainly: co-IP; HEK293T cells transiently transfected with Flag-tagged TREX1 and His-tagged TRAM1; bidirectional Co-IP, western blot. Background: Immunoblotting shows a protein as a band on a membrane.

Protein sequences, listed by entry. Tags and fused reporters are not part of them.
UniProt Q15629: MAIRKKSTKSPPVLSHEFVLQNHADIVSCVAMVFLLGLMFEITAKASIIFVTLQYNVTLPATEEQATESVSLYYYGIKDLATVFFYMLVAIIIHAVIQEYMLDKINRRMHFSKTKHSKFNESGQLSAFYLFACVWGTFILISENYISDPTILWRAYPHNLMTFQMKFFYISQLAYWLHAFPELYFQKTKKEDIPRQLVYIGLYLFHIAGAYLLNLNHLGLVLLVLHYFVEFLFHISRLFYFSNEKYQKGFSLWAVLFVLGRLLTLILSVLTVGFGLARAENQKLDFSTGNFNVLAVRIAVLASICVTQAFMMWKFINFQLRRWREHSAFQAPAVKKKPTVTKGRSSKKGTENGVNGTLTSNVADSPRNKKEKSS

In experiment [2] the target is T2, endogenous TREX1 (three-prime repair exonuclease 1) (human (endogenous in NP cells)) (UniProt Q9NSU2).
T2 sequence: T1 sequence
Kind of experiment: co-IP; endogenous forward and reverse Co-IP in normal (passage 2) and senescent (passage 8) human NP cells; NP-40 lysate, 3-5 ug primary or control antibody overnight at 4 C, protein A/G magnetic beads, western blot.

No constants are given. Whether binding was seen depends on the method and setting. Binding seen in cells or lysates may run through a third protein. Some binding calls cover weakened binding; strength is not graded here. For some assays here: Where a sequence is shown, tags or fusion partners need not be part of it.

“His-tagged TRAM1 (from UniProt Q15629 1-374)”: the binding result in experiment [1] was “binds”.
“endogenous translocating chain-associating membrane protein 1 (TRAM1) (from UniProt Q15629 1-374)”: the binding result in experiment [2] is “binds”.

Source of the values: paper PMC11233569.
